The nature of the experiment: qHTS Assay to Find Inhibitors of Chronic Active B-Cell Receptor Signaling. The settings on record: ABC-DLBCL IkBa-CBG/CBR reporter, luminescence ratio (green luciferase fused to IkBa over red control in TMD8 lymphoma cells), 4 h. Summed up: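 Compounds up to 46 uM were incubated four hours with TMD8 cells whose green CBG68 luciferase is fused to IkappaBalpha; red CBR luminescence normalised the signal, and concentration-effect curves were fitted to fusion, red and ratio data.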
Background: Quantitative high-throughput screening tests each substance at several concentrations.

Setting [1] is: measured here: CBR red luminescence, cell number.
The mark [2] stands for this setting: measured here: IkBa-CBG green luminescence.

The other results are listed elsewhere or left out. Further columns of the screen follow, without active or inactive calls. Compounds called inactive in the main read-out are mostly missing here. Potencies come from curve fits of mixed quality, noted in brackets.

For `COc1cccc(C(=O)Cn2c(=N)n(C)c3ccccc32)c1`, under setting [1], the AC50 is 10 µM [falling, single point].
On the same count and under the same terms, the figure for `COc1ccccc1C(CNC(=O)c1ccc(C)c(S(=O)(=O)N2CCCCC2)c1)N(C)C` (stereo not drawn) is 0.651 µM [falling, full curve, poor fit].
For `CC(C)(C)OC(=O)COc1cc(OCC(=O)OC(C)(C)C)c2c(=O)cc(-c3ccccc3)oc2c1`, the AC50 was 20 µM [falling, single point] under setting [1] and 12.6 µM [rising, partial curve, poor fit] under setting [2].
`Cc1c(Cc2ccccc2)sc(NC(=O)c2ccco2)c1C(N)=O`: the concentration at half-maximal activity (AC50) by setting is: under setting [1], 6.51 µM [falling, partial curve, poor fit]; under setting [2], 0.58 µM [rising, full curve].
In the case of `COc1ccccc1C(=O)NCC(=O)NNC(=O)c1cccs1`, the half-maximal activity concentration (AC50) under setting [1] is 0.731 µM [falling, single point].
In the case of `COc1ccc(C(=O)NN(C)c2nc(-c3ccccc3)nnc2C(F)(F)F)cc1`, the AC50 under setting [1] was 11.2 µM [rising, single point].
Consider `Nc1nonc1C(=O)N/N=C\c1cc2c(cc1Cl)OCO2`, for which the AC50 reads like this: under setting [1], 31.6 µM [rising, single point]; under setting [2], 35.5 µM [falling, single point].
Consider `COc1cc2[nH]c(=S)nc(NCCc3ccc(S(N)(=O)=O)cc3)c2cc1OC`, for which, under setting [1], the AC50 was 8.91 µM [rising, partial curve, poor fit].
`Cc1cc(Nc2ccc(N3CCC(C)CC3)cc2)n2ncnc2n1`: the AC50 under setting [1] was 16.4 µM [falling, partial curve, poor fit].
On to `CC(=O)c1c(C)nc(Nc2nc(C)c3cc(C)ccc3n2)nc1C`, for which the half-maximal activity concentration (AC50) under setting [1] was 8.91 µM [rising, partial curve, poor fit].
Same read-out and setting: the figure for `COc1ccc(/C=C/C(=O)Nc2ccccc2C(=O)NCC(c2ccc(OC)cc2)N(C)C)cc1` (stereo not drawn) is 15.8 µM [falling, single point].
As to `CC[C@]12c3[nH]c4ccc(Cl)cc4c3CCN1C(=O)[C@@H](CC(=O)NC/C=C(\C)CCC=C(C)C)C[C@@H]2C(=O)N1CCN(C(=O)C2CC2)CC1`, the AC50 by setting is: under setting [1], 20.6 µM [falling, single point]; under setting [2], 32.6 µM [rising, partial curve, poor fit].
With `O=C(NC1CC1)C1=C[C@H](c2c[nH]c3ccccc23)C[C@H](OCc2ccc(CO)cc2)O1`, the AC50 under setting [1] was 3.55 µM [rising, full curve].
On to `O=C(Nc1nc(=O)c2ccccc2s1)c1ccccc1`, for which, under setting [1], the half-maximal activity concentration (AC50) is 2.59 µM [falling, full curve, poor fit].
Consider `COc1ccc(CCNCc2c(-c3ccccc3)n(C)c3ccccc23)cc1`, for which, under setting [1], the concentration at half-maximal activity (AC50) is 15.8 µM [falling, single point].
`CNc1snc(C)c1C(=O)OC(C)C(=O)Nc1ccccc1` (stereo not drawn): the half-maximal activity concentration (AC50) under setting [1] was 29.1 µM [rising, single point].
In the case of `O=C(CSC1=NCCS1)N1CCc2ccccc21`, the AC50 under setting [1] is 0.731 µM [rising, partial curve, poor fit].
`CC(C)c1ccccc1OCCNS(C)(=O)=O`: the concentration at half-maximal activity (AC50) under setting [1] was 7.94 µM [rising, partial curve, poor fit].
Same read-out and setting: the figure for `Cc1cc(C)c(OCCN(C)Cc2ccccc2)c(Br)c1` is 15.8 µM [rising, single point].
For the compound `Cc1ccc(COc2ccsc2C(=O)NNC(N)=S)cc1`, the concentration at half-maximal activity (AC50) under setting [1] was 22.4 µM [falling, single point].
On to `Oc1c(C(c2ccccn2)N2CCCCC2)cc(Cl)c2cccnc12` (stereo not drawn), for which, under setting [1], the AC50 is 15.8 µM [falling, partial curve, poor fit].
For the compound `Cc1cc(NCCCN2CCOCC2)n2c(nc3ccccc32)c1C#N`, the AC50 under setting [1] is 35.5 µM [falling, single point].
For `N#Cc1cccc(NC(=O)CNc2cccc(S(=O)(=O)N3CCCC3)c2)c1`, the half-maximal activity concentration (AC50) under setting [1] was 18.4 µM [falling, single point].
For `O=C(CNC(=O)c1ccccc1F)NCCc1ccccc1F`, the AC50 under setting [1] is 3.26 µM [rising, single point].
On the same count and under the same terms, for `COc1ccc(C(=O)Nc2nc3ccccc3c(=O)[nH]2)cc1` the value was 0.184 µM [falling, full curve].
`Cn1cnnc1SCC(=O)Nc1ncc([N+](=O)[O-])s1`: under setting [1], the AC50 was 14.6 µM [falling, partial curve, poor fit].
For the compound `OCCNCc1ccc(-c2ccccc2)cc1`, under setting [1], the AC50 is 0.731 µM [falling, full curve, poor fit].
Same read-out and setting: for `CC(=O)NCCc1csc(-c2ccccc2)n1` the value was 29.1 µM [rising, single point].
For `C/C=C(\C)C(=O)Nc1cccc(C2=NOC3(C2)C[C@@H](C(N)=O)N(C(=O)c2cc([N+](=O)[O-])cc([N+](=O)[O-])c2C)C3)c1` (stereo partly drawn), under setting [1], the AC50 is 0.447 µM [rising, full curve, poor fit].
On to `O=C(O)C(Oc1ccc2c(c1)oc(=O)c1ccccc12)c1ccccc1` (stereo not drawn), for which, under setting [1], the AC50 was 11.2 µM [rising, partial curve, poor fit].
The same measure, in the same setting: for `CCc1ccc2c(c1)[C@H]1OCC[C@H]1[C@@H](c1cccs1)N2` the value was 6.51 µM [rising, single point].
Consider `CCC1CCCCN1C(=O)Cn1c(C(=O)OC)cc2sc(Cl)cc21` (stereo not drawn), for which the AC50 under setting [2] is 6.51 µM [rising, single point].
With `CC1CCCN(C(=O)Cn2c(-c3nonc3N)nc3ccccc32)C1` (stereo not drawn), the concentration at half-maximal activity (AC50) under setting [1] was 17.8 µM [falling, single point].
Regarding `Cc1ccc(NC(=O)N2CCN(C)CC2)cc1NC(=O)N1CCN(C)CC1`, under setting [1], the concentration at half-maximal activity (AC50) is 14.1 µM [rising, single point].
As for `C=CCSc1n[nH]c(-c2ccc(OC)cc2)n1`, the half-maximal activity concentration (AC50) under setting [1] was 14.6 µM [falling, partial curve].
As for `O=C(Nc1ccc([N+](=O)[O-])cc1Cl)c1cc(Cl)ccc1O`, under setting [1], the AC50 is 0.366 µM [falling, full curve].
Still for that read-out and setting: for `O=C(Cc1cccc2ccccc12)Nc1ccc2c(c1)C(=O)NC2=O` the value was 7.94 µM [falling, partial curve, poor fit]; for `CCN1CCN(S(=O)(=O)c2ccc(Cl)c(C(=O)NC3CC3)c2)CC1`, 6.51 µM [rising, partial curve, poor fit]; for `COc1ccccc1NC(=O)CSc1nc2nc(C)cc(C)c2c(=O)[nH]1`, 13 µM [falling, partial curve, poor fit].

For orientation: AC50 means the concentration giving half of the maximal activity seen.

These data come from PubChem BioAssay AID493014 (National Center for Advancing Translational Sciences (NCATS), 2011).
